Common to all, as to assay: log2 fold change, soluble protein after heating vs DMSO (PISA); higher = thermal stabilisation; K562 lysate, 10 uM; active = over 0.2 and 3.5 SD of the protein, either way, in both replicates (recomputed)
Compound in one experiment: CS(=O)(=O)CCNCc1ccc(-c2ccc3ncnc(Nc4ccc(OCc5cccc(F)c5)c(Cl)c4)c3c2)o1 [lapatinib]
In a few lines:
(§1)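 Thermal stability, expressed as log-two fold change relative to solvent controls, is given from duplicates. Crude K562 extract in PBS pH 7.4 with 1 mM MgCl2, at 1 mg/mL protein, was treated with 10 μM compound for 30 min and heated in aliquots for 3 min across 48°C-58°C. After pooling, adjustment to 0.5% NP-40 at 4°C and centrifugation at 21,000xg for 90 min, supernatant protein was measured by TMTpro 16plex LC-MS/MS with channel sums equalised.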

Amino acid sequences for entries named in this document (tags omitted). A change or cut given only in a name is not applied to a line headed by its entry.
UniProt Q9UGY1: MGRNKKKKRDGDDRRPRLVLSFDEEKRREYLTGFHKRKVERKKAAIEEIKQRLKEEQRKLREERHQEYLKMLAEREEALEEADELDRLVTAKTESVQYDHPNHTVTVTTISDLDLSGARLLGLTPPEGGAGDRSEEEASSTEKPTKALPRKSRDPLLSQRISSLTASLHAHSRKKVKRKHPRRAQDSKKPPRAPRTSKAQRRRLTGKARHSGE
UniProt Q14978: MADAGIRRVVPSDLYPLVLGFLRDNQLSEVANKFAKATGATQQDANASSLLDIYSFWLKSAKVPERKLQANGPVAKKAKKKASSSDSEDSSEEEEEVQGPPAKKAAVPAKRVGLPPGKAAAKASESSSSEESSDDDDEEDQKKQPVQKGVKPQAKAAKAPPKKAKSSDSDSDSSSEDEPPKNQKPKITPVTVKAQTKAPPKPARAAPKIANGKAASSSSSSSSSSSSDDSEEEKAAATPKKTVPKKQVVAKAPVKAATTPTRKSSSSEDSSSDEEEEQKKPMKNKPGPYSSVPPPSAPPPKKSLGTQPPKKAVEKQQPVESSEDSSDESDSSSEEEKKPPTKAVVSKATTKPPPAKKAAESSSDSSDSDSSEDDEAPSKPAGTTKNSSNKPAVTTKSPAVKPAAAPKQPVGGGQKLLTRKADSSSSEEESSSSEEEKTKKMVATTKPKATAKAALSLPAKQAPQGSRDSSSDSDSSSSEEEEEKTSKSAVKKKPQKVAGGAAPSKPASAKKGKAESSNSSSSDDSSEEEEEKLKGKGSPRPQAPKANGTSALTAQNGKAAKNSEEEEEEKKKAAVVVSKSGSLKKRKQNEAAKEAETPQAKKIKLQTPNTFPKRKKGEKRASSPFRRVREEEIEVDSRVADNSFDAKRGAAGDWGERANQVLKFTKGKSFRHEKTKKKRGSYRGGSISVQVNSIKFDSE
UniProt P49902: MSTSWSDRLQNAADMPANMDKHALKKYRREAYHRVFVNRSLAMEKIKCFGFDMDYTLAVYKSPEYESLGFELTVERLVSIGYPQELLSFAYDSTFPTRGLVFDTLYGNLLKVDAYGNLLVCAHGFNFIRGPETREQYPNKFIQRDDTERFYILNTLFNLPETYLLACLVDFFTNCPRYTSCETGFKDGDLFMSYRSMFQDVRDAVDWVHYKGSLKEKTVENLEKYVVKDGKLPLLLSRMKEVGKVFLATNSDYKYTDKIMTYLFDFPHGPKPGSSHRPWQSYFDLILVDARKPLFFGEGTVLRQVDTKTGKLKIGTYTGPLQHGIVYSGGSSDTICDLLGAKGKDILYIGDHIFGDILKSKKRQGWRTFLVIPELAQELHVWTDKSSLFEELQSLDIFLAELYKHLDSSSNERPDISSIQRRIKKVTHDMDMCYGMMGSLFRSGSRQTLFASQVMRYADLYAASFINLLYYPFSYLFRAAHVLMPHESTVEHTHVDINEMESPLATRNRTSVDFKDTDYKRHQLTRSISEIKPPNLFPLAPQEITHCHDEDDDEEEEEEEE
UniProt O43809, whole entry, looked up: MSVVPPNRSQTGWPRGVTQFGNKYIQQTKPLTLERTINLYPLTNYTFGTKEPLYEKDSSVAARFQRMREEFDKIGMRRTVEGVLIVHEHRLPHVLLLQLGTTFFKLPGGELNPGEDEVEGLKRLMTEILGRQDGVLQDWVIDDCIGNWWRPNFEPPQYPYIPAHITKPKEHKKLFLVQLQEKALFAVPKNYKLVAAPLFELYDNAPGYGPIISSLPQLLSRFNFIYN
UniProt Q9Y5Y2: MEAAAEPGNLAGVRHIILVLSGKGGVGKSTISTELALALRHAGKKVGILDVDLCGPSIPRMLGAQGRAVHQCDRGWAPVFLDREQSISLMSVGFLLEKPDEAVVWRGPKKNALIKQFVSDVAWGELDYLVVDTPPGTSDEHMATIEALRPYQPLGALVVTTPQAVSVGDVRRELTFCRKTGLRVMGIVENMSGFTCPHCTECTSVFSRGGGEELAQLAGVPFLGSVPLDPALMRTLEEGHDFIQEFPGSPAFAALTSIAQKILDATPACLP
UniProt Q8WTT2: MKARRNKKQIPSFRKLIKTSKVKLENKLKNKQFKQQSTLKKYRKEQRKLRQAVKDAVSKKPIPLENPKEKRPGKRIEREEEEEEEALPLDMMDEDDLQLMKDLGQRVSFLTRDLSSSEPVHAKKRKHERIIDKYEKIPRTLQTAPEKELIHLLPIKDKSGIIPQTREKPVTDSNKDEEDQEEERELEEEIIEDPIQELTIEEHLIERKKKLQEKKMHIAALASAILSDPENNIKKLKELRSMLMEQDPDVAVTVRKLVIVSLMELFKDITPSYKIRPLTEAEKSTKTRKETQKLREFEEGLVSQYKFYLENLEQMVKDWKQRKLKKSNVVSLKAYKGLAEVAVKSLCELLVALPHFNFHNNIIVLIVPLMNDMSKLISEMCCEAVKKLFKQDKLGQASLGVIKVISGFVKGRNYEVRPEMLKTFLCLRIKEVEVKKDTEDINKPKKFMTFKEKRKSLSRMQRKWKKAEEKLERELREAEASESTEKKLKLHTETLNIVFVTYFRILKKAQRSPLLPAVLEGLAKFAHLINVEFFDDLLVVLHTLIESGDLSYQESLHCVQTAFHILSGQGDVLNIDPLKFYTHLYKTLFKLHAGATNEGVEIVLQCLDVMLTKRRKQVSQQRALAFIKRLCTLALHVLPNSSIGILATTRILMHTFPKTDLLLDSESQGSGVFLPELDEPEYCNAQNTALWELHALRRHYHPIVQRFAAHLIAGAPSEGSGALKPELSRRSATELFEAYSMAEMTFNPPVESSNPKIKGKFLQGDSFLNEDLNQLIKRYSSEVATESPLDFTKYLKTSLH
UniProt P80303: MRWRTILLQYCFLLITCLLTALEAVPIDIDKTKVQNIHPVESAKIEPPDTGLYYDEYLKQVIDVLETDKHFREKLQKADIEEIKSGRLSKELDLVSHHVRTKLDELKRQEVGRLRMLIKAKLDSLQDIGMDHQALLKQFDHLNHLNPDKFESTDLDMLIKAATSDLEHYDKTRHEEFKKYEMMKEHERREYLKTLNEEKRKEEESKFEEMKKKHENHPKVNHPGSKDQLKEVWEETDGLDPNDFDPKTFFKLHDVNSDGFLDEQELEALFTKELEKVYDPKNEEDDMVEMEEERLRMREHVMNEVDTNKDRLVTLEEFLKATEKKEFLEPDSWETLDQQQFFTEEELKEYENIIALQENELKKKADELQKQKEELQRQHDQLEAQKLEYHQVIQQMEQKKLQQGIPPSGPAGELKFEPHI
UniProt O43847: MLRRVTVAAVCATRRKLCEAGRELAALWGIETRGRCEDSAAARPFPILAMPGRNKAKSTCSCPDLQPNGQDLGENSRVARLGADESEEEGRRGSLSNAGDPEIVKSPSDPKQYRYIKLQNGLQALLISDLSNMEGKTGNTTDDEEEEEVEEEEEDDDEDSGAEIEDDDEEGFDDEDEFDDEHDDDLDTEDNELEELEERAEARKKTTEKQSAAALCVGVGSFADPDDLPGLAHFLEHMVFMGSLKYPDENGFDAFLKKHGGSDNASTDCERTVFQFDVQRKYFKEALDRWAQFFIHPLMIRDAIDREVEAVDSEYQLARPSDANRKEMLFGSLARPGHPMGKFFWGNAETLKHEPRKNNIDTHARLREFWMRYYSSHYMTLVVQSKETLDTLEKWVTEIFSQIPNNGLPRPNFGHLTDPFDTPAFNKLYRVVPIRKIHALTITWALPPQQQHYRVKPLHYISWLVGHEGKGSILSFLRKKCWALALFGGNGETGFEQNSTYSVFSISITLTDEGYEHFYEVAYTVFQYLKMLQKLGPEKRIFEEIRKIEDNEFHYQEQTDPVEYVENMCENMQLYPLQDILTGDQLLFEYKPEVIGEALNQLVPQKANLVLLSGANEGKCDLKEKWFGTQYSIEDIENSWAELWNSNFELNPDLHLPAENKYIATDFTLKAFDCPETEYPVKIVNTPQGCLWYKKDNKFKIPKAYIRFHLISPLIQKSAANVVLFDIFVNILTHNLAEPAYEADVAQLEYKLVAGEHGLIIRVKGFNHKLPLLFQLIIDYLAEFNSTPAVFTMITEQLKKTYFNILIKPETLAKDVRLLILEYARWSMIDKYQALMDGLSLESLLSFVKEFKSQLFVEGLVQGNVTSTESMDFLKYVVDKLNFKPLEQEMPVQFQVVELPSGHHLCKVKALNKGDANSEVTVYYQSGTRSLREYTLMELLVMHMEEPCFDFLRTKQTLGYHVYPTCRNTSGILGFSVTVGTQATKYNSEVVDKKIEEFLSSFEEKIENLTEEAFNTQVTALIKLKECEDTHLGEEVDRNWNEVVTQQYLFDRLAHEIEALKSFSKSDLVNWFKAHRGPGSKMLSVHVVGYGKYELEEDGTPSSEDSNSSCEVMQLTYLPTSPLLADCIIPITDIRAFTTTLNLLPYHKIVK
UniProt O95848: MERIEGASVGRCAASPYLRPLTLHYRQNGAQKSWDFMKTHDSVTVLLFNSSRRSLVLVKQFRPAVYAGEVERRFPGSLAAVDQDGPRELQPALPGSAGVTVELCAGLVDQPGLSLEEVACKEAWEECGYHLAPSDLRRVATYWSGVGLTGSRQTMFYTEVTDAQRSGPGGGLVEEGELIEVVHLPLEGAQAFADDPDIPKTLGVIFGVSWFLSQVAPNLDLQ
UniProt P46459: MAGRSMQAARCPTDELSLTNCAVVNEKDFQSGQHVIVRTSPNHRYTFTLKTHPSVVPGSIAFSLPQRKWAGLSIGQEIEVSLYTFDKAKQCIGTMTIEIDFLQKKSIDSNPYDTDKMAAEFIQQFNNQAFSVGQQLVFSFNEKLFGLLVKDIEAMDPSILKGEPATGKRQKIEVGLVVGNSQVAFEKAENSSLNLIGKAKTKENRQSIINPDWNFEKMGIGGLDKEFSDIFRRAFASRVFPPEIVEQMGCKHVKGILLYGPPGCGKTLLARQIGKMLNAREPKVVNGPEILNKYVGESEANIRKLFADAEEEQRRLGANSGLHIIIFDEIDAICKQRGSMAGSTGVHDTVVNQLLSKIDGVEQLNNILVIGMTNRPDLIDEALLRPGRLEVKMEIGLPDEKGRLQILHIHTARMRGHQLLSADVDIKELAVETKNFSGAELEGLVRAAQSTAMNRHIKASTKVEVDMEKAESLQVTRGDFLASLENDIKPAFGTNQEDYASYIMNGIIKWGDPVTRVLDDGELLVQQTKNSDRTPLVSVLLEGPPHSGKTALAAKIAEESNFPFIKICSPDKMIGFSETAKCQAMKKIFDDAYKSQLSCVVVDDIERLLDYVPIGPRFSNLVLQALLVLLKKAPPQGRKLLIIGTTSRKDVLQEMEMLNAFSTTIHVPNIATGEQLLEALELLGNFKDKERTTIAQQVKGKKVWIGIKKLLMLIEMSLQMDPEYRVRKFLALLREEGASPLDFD
UniProt P40261: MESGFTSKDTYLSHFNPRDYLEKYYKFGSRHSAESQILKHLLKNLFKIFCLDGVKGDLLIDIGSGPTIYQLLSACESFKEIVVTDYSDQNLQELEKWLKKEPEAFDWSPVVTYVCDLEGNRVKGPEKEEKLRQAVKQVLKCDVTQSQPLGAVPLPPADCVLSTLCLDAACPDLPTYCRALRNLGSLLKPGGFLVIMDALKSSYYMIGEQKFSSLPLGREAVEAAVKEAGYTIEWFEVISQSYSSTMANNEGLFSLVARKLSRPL

Compound in a further experiment: CS(=O)(=O)N1CCN(Cc2cc3nc(-c4cccc5[nH]ncc45)nc(N4CCOCC4)c3s2)CC1 [pictilisib]
In a few lines: as §1

Compound in the next experiment: C[C@@H](Oc1cc(-c2cnn(C3CCNCC3)c2)cnc1N)c1c(Cl)ccc(F)c1Cl [crizotinib]
The method in brief: as §1

Compound in experiment [1]: C[C@H](C1=CC=C(C=C1)C(=O)NC2=C3C=CNC3=NC=C2)N
In a few lines:
as §1

Compound in a further experiment: C[C@H](Nc1ncnc2nc[nH]c12)c1cc2cccc(Cl)c2c(=O)n1-c1ccccc1 [duvelisib]
In a few lines:
as §1

Compound in another experiment: Cc1cc(Nc2cc(CN3CCOCC3)c3nc(C)c(Cc4ccc(Cl)cc4F)n3n2)n[nH]1 [gandotinib]
The method in brief:
as §1

Compound in a further experiment: Cc1cc(Nc2cc(N3CCN(C)CC3)nc(Sc3ccc(NC(=O)C4CC4)cc3)n2)n[nH]1 [tozasertib]
The method in brief: as §1

Compound in the next experiment: Cc1ccc(-n2nc(C(C)(C)C)cc2NC(=O)Nc2ccc(OCCN3CCOCC3)c3ccccc23)cc1 [doramapimod]
The method in brief: as §1

Compound in another experiment: Cc1ccc(NC(=O)c2ccc(CN3CC[C@H](N(C)C)C3)c(C(F)(F)F)c2)cc1Nc1nccc(-c2cncnc2)n1 [bafetinib]
The method in brief:
as §1

Compound in experiment [2]: Cc1cccc(CC(=O)N2CCc3c2ccc(-c2cn(C)c4ncnc(N)c24)c3F)n1
The method in brief: as §1

The other results are listed elsewhere or left out.

Regarding NOL12 (UniProt Q9UGY1), the log2 fold change with lapatinib is inactive: -0.009; with pictilisib, inactive: -0.044; in the experiment with crizotinib, inactive: -0.05; in experiment [1], inactive: -0.002; with duvelisib, inactive: 0.011; with gandotinib it was inactive: 0.012. Moreover, the log2 fold change is inactive: 0.034 in the experiment with tozasertib, inactive: -0.07 with doramapimod, inactive: 0.05 in the experiment with bafetinib and inactive: -0.031 in experiment [2].

For NOLC1 isoform 2 (UniProt Q14978), the log2 fold change is inactive: -0.015 with lapatinib; inactive: -0.04 with pictilisib; inactive: 0.013 with crizotinib; inactive: -0.086 in experiment [1]; inactive: 0.008 in the experiment with duvelisib; inactive: 0.057 with gandotinib. For the same target, the log2 fold change is inactive: 0.004 with tozasertib, inactive: -0.006 with doramapimod, inactive: 0.026 with bafetinib and inactive: 0.017 in experiment [2].

Regarding NT5C2 (UniProt P49902), the log2 fold change is inactive: -0.011 in the experiment with lapatinib; inactive: 0.021 in the experiment with pictilisib; inactive: -0.017 in the experiment with crizotinib; inactive: 0.01 in experiment [1]; inactive: -0.025 in the experiment with duvelisib; inactive: -0.008 with gandotinib. Moreover, the log2 fold change with tozasertib was inactive: -0.05; with doramapimod, inactive: -0.041; with bafetinib, inactive: -0.026; in experiment [2], inactive: -0.016.

For NUDT21 (UniProt O43809), the log2 fold change is inactive: -0.034 with lapatinib; inactive: -0.001 with pictilisib; inactive: 0.038 in the experiment with crizotinib; inactive: -0.012 in [1]; inactive: 0.006 in the experiment with duvelisib; inactive: -0.054 in the experiment with gandotinib. In addition, the log2 fold change in the experiment with tozasertib is inactive: 0.011; with doramapimod, inactive: 0.009; with bafetinib, inactive: 0.006; in experiment [2] it was inactive: 0.014.

Turning to NUBP2 (UniProt Q9Y5Y2), the log2 fold change with lapatinib was inactive: -0.037; with pictilisib, inactive: 0.023; in the experiment with crizotinib, inactive: -0.004; in experiment [1] it was inactive: 0.214; in the experiment with duvelisib it was inactive: -0.003; with gandotinib, inactive: -0.072. Further, the log2 fold change in the experiment with tozasertib was inactive: 0.013; with doramapimod, inactive: 0.003; with bafetinib, inactive: 0.009; in experiment [2], inactive: -0.063.

For NOC3L (UniProt Q8WTT2), the log2 fold change is inactive: -0.011 in the experiment with lapatinib; inactive: -0.003 with pictilisib; inactive: -0.066 with crizotinib; inactive: -0.052 in [1]; inactive: -0.016 with duvelisib; inactive: -0.02 in the experiment with gandotinib. Besides, the log2 fold change was inactive: -0.041 in the experiment with tozasertib, inactive: -0.004 with doramapimod, inactive: -0.048 with bafetinib and inactive: 0.047 in experiment [2].

As for NUCB2 (UniProt P80303), the log2 fold change was inactive: -0.006 with lapatinib; inactive: -0.006 with pictilisib; inactive: 0.041 in the experiment with crizotinib; active: 0.253 in [1]; inactive: 0.008 in the experiment with duvelisib; inactive: -0.044 in the experiment with gandotinib. The log2 fold change was inactive: 0.003 in the experiment with tozasertib, inactive: -0.024 with doramapimod, inactive: -0.022 in the experiment with bafetinib and inactive: -0.126 in [2].

In the case of NRDC isoform 2 (UniProt O43847), the log2 fold change was inactive: -0.004 in the experiment with lapatinib; inactive: -0.029 with pictilisib; inactive: -0.009 with crizotinib; inactive: -0.007 in experiment [1]; inactive: 0.015 in the experiment with duvelisib; inactive: -0.065 with gandotinib. Moreover, the log2 fold change is inactive: -0.001 in the experiment with tozasertib, inactive: -0.024 with doramapimod, inactive: -0.027 with bafetinib and inactive: -0.01 in experiment [2].

Regarding NUDT1 (UniProt P36639), the log2 fold change with lapatinib is inactive: -0.009; with pictilisib it was inactive: 0.029; in [1] it was inactive: -0.019; with duvelisib, inactive: 0.05; with gandotinib, inactive: 0.035; with tozasertib, inactive: 0.024. Moreover, the log2 fold change with doramapimod was inactive: -0.028; with bafetinib it was inactive: 0.05; in experiment [2], inactive: -0.02.

With NUDT14 (UniProt O95848), the log2 fold change is inactive: 0.012 with lapatinib; inactive: 0.08 with pictilisib; inactive: 0.025 in the experiment with crizotinib; inactive: -0.065 in experiment [1]; inactive: -0.028 in the experiment with duvelisib; inactive: 0.139 with gandotinib. The values for the log2 fold change (with doramapimod; in the experiment with bafetinib; in experiment [2]) were inactive: -0.051, inactive: 0.035 and inactive: 0.076, respectively.

NSA2 (UniProt O95478): the log2 fold change with lapatinib was inactive: 0.014; with pictilisib, inactive: -0.088; in experiment [1], inactive: -0.036; with duvelisib, inactive: -0.055; in the experiment with gandotinib it was inactive: 0.159; with tozasertib, inactive: -0.086. In addition, the log2 fold change is inactive: 0.064 with bafetinib and inactive: 0.221 in experiment [2].

Turning to NSF (UniProt P46459), the log2 fold change in the experiment with lapatinib was inactive: -0.026; with pictilisib, inactive: -0.014; with crizotinib it was inactive: 0.003; in [1], inactive: 0.033; with duvelisib, inactive: 0.019; with gandotinib, inactive: -0.105. Also, the log2 fold change was inactive: 0.014 with tozasertib, inactive: 0.008 in the experiment with doramapimod, inactive: -0.019 in the experiment with bafetinib and inactive: -0.009 in experiment [2].

For the target NRBF2 (UniProt Q96F24), the log2 fold change was inactive: 0.023 with lapatinib; inactive: -0.014 in the experiment with pictilisib; inactive: 0.021 with crizotinib; inactive: 0.033 in [1]; inactive: 0.001 in the experiment with duvelisib; inactive: 0.082 in the experiment with gandotinib. Besides, the log2 fold change with tozasertib is inactive: 0.05; with doramapimod, inactive: 0.016; with bafetinib it was inactive: -0.008; in experiment [2], inactive: -0.007.

On to NNMT (UniProt P40261), for which the log2 fold change with lapatinib is inactive: -0.017; in the experiment with pictilisib it was inactive: 0.037; with crizotinib, inactive: -0.065; in [1], inactive: -0.072; in the experiment with duvelisib, inactive: 0.066; with gandotinib, inactive: 0.015. Also, the log2 fold change with tozasertib was inactive: 0; in the experiment with doramapimod it was inactive: 0.013; in the experiment with bafetinib, inactive: -0.066; in experiment [2], inactive: -0.001.

Take NOC2L (UniProt Q9Y3T9): the log2 fold change in the experiment with lapatinib was inactive: -0.049; in the experiment with pictilisib, inactive: -0.012; with crizotinib it was inactive: -0.077; in [1], inactive: -0.004; in the experiment with duvelisib, inactive: -0.074; with gandotinib, inactive: -0.037. Besides, the log2 fold change is inactive: -0.015 with tozasertib, inactive: 0.03 with doramapimod, inactive: -0.137 in the experiment with bafetinib and inactive: 0.09 in [2].

Values taken from the supplement of paper PMC10849652.
